These results are taken from patent US8846661B2, “Diazahomoadamantane derivatives and methods of use thereof” (AbbVie Inc., priority 2009, dated 2014).

This assay concerns the target α7 NNR (UniProt Q05941). Conditions: [3H]-DPPB binding.

`N#Cc1cccc(-c2cncc(N3CC4CC5CC3CN(C5)C4)c2)c1` (stereo not shown) [Example 90, 3-[5-(1,4-diazatricyclo[4.3.1.1^3,8]undec-4-yl)pyridin-3-yl]benzonitrile] came in with a Ki of 48.5 nM.

In general, Ki refers to the dissociation constant of the complex between target and ligand, obtained from inhibition or displacement. Lower therefore signals a stronger hold on the target.
